In paper PMC7689448:
No constants are given. Whether binding was seen depends on the method and setting. Binding seen in cells or lysates may run through a third protein. Some binding calls cover weakened binding; strength is not graded here.

Sequences of proteins named here, by UniProt entry; tags and fusion partners are left off.
UniProt Q9Y6Q9: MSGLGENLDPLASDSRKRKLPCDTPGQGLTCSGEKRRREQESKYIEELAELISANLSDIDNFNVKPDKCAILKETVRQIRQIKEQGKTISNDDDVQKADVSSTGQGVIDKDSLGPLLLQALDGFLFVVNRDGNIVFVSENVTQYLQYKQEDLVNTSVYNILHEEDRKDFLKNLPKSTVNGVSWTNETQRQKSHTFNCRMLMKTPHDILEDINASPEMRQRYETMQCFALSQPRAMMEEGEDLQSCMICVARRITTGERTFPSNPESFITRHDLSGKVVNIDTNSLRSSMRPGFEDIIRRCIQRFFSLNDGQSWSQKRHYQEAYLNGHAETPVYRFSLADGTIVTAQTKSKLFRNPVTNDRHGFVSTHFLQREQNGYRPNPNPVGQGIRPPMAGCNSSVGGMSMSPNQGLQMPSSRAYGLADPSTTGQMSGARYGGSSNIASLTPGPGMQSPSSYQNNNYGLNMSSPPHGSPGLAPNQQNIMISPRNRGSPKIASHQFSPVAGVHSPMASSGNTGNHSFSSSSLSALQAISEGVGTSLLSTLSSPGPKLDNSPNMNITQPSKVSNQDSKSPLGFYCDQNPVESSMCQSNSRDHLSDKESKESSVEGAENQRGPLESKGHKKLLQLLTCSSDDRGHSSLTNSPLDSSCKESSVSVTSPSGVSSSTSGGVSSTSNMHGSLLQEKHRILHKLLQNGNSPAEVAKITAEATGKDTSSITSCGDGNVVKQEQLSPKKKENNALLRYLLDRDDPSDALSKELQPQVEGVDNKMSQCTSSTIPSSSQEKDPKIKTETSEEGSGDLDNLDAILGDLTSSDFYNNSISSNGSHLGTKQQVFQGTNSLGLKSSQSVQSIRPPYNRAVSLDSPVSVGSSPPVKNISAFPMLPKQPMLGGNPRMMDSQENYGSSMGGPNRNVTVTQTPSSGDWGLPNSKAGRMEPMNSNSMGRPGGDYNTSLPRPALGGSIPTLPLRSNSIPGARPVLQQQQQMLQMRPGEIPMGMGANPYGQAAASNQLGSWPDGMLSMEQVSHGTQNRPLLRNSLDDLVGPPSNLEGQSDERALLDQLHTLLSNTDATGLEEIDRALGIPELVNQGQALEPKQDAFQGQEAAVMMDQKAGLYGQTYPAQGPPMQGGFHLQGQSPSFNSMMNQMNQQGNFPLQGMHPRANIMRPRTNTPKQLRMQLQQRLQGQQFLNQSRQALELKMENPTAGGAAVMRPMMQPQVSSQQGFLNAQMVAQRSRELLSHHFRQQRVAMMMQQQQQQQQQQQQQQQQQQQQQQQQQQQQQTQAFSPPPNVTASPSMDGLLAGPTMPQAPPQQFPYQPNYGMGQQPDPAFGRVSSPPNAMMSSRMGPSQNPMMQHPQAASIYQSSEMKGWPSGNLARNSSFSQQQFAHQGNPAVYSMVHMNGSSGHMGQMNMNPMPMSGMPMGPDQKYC
UniProt P08047: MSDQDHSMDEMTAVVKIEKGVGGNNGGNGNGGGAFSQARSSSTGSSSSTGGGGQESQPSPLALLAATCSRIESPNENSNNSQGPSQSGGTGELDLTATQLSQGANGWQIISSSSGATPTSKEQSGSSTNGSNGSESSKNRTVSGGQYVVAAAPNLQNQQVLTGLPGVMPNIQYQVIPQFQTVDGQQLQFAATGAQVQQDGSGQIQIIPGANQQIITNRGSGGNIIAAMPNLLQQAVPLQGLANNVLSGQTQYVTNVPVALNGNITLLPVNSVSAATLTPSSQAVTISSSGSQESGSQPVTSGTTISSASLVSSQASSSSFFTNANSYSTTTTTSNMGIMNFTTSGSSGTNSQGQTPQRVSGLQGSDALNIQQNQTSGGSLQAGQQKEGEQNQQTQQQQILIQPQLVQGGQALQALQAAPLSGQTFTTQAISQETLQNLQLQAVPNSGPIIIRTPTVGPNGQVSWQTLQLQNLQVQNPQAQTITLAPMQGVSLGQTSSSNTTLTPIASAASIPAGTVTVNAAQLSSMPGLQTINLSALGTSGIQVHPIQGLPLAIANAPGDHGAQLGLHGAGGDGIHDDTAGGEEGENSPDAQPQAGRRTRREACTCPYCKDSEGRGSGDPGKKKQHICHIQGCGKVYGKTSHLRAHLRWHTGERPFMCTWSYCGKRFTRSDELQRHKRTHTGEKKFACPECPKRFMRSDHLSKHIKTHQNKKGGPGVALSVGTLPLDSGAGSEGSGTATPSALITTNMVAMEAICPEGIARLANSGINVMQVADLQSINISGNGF

Legend:
[1] = target: nuclear receptor coactivator-3 (NCOA3), endogenous (human (endogenous in Hep3B and HepG2)) (UniProt Q9Y6Q9); experiment: co-IP; nuclear extracts of Hep3B and HepG2 cells with vector or NCOA3 overexpression; NCOA3 antibody and protein A/G agarose beads; SP1 detected by blot; IgG as negative control
[2] = target: NCOA3, overexpressed from lentivirus pLV[Exp]-Puro-CMV-NCOA3-IRES:EGFP (human) (UniProt Q9Y6Q9); experiment: as above

binding [1]: binds
binding [2]: binds
Substance: SP1, endogenous (from UniProt P08047 1-785)
